This is an account of results in US20230220000 (published 2023).

“And” between values parts separate entries of the source, which are not always exact repeats. Identical values can stand only once.

Data set [1] is described as follows: general procedure: Fmoc solid-phase peptide synthesis; Fmoc Sieber resin; PyBOP/collidine or PyBOP/DIEA (side chain); DEPT/DIEA (N-terminal His); DIC/ethy. Conditions: whole synthesis, zwitterionic form; sodium salt.
A short description of data set [2]: general procedure: Fmoc solid-phase peptide synthesis; Fmoc amide resin; Sieber resin (0.6 mmol/g); PyBOP/collidine or PyBOP/DIEA (side chain); DEPT/DIEA (N-terminal His); DIC/ethy. The note with it: sodium salt.
Where [3] appears, read: whole synthesis, UPLC, scale of the general procedure 28 g Sieber resin, 1.4 kg Sieber resin, zwitterionic form.
[4] abbreviates: whole synthesis, scale of the general procedure 28 g Sieber resin, 1.4 kg Sieber resin, zwitterionic form.

Turning to Boc-His(Dnp)-Aib-Gln(Trt)-Gly-OH, in data set [1], the crude mass turned out to be 1.89 g. The “crude HPLC purity” value in data set [2] (setting [3]) was determined as 97.66% UPLC purity. The crude yield in data set [2] (setting [4]) amounted to 87.8%.
As to “Boc-His(Dnp)-Aib-Gln(Trt)-Gly-Thr(^tBu)-OH”, the “crude HPLC purity” value in data set [2] (setting [3]) came out at 88.1%. Moreover, the crude yield in data set [2] (setting [4]) is 91.4%. Further, the crude mass in data set [2] (whole synthesis, zwitterionic form) is 2.255 g.
Consider “H2N-H-Aib-QGTFTSDYSKYLDEKKAKEFVEWLLEGGPSSG-NH2”, for which the “final purity (method not given)” value in data set [2] (purification step, HPLC area percent, UPLC, zwitterionic form, run 1) was 93% purity and 98% purity. In addition, the step yield is 83% yield and 93.6% yield in data set [2] (purification step, zwitterionic form, run 1); 95% yield in data set [2] (purification step, zwitterionic form, run 2). In addition, the “final HPLC purity” value in data set [2] (whole synthesis, HPLC area percent, UPLC, scale of the general procedure 28 g Sieber resin, 1.4 kg Sieber resin) is reported as “greater than 95.0% HPLC purity”. Besides, in data set [2] (whole synthesis, HPLC area percent, UPLC, scale of the general procedure 28 g Sieber resin, 1.4 kg Sieber resin, zwitterionic form), the “crude HPLC purity” value is 65% HPLC area percent purity. Also, the crude yield in data set [2] (whole synthesis, contained yield based on Sieber resin, scale of the general procedure 28 g Sieber resin, 1.4 kg Sieber resin, zwitterionic form) was 47%. Also, the isolated yield in data set [2] (whole synthesis, overall process yield from Sieber resin, scale of the general procedure 28 g Sieber resin, 1.4 kg Sieber resin) is reported as 25%. For the same substance, the difficulty met entry in data set [2] (setting [4]) was “In contrast, coupling individual Fmoc-L-Gly and Fmoc-L-Thr amino acids result in high levels of peptide impurities having a Thr5 deletion”. In addition, the isolated mass in data set [2] (whole synthesis) was 10 g.
